Measured values from the supplement of paper PMC12889115.
The list shows a part of the results. Values are raw readings; no control value is given beside them.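 In the initial screen, polymyxin B was used at a concentration that permeabilizes Salmonella's outer membrane but not its inner membrane. Maximum growth was set by DMSO wells with or without polymyxin B. Since plates varied, data were ranked per plate, and compounds giving the lowest OD600 advanced as hits.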

Tested on: Salmonella enterica serovar Typhimurium SL1344
Test: bacterial growth OD600 after 18 h with compound and polymyxin B; higher = more bacterial growth (less inhibition)
Conditions: 50 µM, Mueller-Hinton broth

| Structure (SMILES) | bacterial growth OD600 (polymyxin B 1 µg/mL) | bacterial growth OD600 (polymyxin B 0.75 µg/mL) |
| --- | --- | --- |
| CC(C)Cn1c(CN(C)CCOc2ccccc2)cnc1S(C)(=O)=O | 0.859 | – |
| CCOC(=O)C1(Cc2ccc(F)cc2)CCCN(C(=O)c2ccccc2C(C)=O)C1 (stereo not given) | 0.881 | – |
| CCOC(=O)C1(Cc2ccc(F)cc2F)CCCN(C2CCN(C(C)=O)CC2)C1 (stereo not given) | 0.727 | – |
| CN1CCN([C@@H]2CCN(CCCC3CCCC3)C[C@H]2O)CC1 | 1.1 | – |
| COc1cc(C)ccc1OCc1nc(C(=O)NC2CCOC(C)(C)C2)co1 (stereo not given) | 0.975 | – |
| O=C(CCOc1ccccc1)Nc1ccnn1C1CCN(C(=O)c2cnsn2)CC1 | 0.84 | – |
| O=C(NCc1ccsc1)c1cc(COc2ccc3c(c2)OCO3)[nH]n1 | 0.742 | – |
| CCOc1ccccc1N1CCN(Cc2nc(-c3cccc(Cl)c3)no2)CC1 | 1.13 | – |
| O=C(C1CCCN(Cc2nc(-c3ccc4c(c3)OCO4)no2)C1)N1CCOCC1 (stereo not given) | 0.851 | – |
| Cn1cc(CN2CCc3onc(-c4ccc(-c5ccccc5)cc4)c3C2)cn1 | – | 0.426 |
| CN(CC1CCCN(CCc2ccccc2F)C1)C(=O)c1cc2ncccn2n1 (stereo not given) | 1.1 | – |
| C=CCn1cc(CN2CCC(C(=O)Nc3ccc(Oc4cccnc4)cc3)CC2)c(C)n1 | 0.839 | – |
| O=C(Cc1c[nH]c2ccccc12)NCc1cccnc1N1CCOCC1 | 0.867 | – |
| CCN(CC)C(=O)CC1(c2ccccc2Cl)CC(=O)N(CCCOC)C1=O (stereo not given) | – | 0.776 |
| O[C@@H]1CN(Cc2cc(F)ccc2-n2cccn2)CC[C@H]1N1CCN(c2ccccn2)CC1 | 0.957 | – |
| Cc1ccccc1-c1nn(-c2ccc(F)cc2F)cc1CN(C)C1CCOC1 (stereo not given) | – | 0.636 |
| COc1ccccc1CCN1CCCC(CN(C)Cc2cccn2-c2ncccn2)C1 (stereo not given) | 0.742 | – |
| O=C(Nc1ccc(Oc2cccnc2)cc1)C1CCCCN1Cc1ccc(F)cc1 (stereo not given) | 0.829 | – |
| COc1ccc(F)c(CNCc2cccnc2N(C)C2CCCCC2)c1 | 1.07 | – |
| COc1cccc(NC(=O)CCC2CCN(C(=O)C(C)Cn3cccn3)CC2)c1 (stereo not given) | 0.899 | – |

Already shown: an excerpt of the list.

| Structure (SMILES) | bacterial growth OD600 (polymyxin B 1 µg/mL) | bacterial growth OD600 (polymyxin B 0.75 µg/mL) |
| --- | --- | --- |
| O=C(CCOc1ccccc1)Nc1ccnn1C1CCN(C(=O)c2cnsn2)CC1 | 0.84 | – |
| O=C(NCc1ccsc1)c1cc(COc2ccc3c(c2)OCO3)[nH]n1 | 0.742 | – |
| CCOc1ccccc1N1CCN(Cc2nc(-c3cccc(Cl)c3)no2)CC1 | 1.13 | – |
